Data: US20120124684A1

Target: malate carrier protein (mouse)
Experiment: anti-αBC immunoprecipitation from mouse heart mitochondria, MudPIT proteomics

B1: endogenous alpha B-crystallin (αBC) of mouse heart mitochondria (protein, UniProt P23927 1-175, looked up)
chain: MDIAIHHPWIRRPFFPFHSPSRLFDQFFGEHLLESDLFSTATSLSPFYLRPPSFLRAPSWIDTGLSEMRLEKDRFSVNLDVKHFSPEELKVKVLGDVIEVHGKHEERQDEHGFISREFHRKYRIPADVDPLTITSSLSSDGVLTVNGPRKQVSGPERTIPITREEKPAVAAAPKK
binding: binds

These are yes or no findings as the source states them, for the method shown. In cells and extracts the contact can be indirect. A yes stands for co-enrichment or nearness to the bait. Other partners may have been found.
